Data as given in PubChem BioAssay AID1259308 (NCATS, 2017).
This is one part, drawn at random, of about 59,000 reagents tested. About 1,510 of them (2.6%) were called active. 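Calls use total luciferase alone and ignore viability, so some active siRNAs may act by altering cell number.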 A number with no mark means an inactive call. Reagents against one gene are numbered here. Reagent sequences are not shown.

Test: 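Candidate targets for better recombinant protein yield in mammalian cells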 (primary screen)
Cells: human HEK293 embryonic kidney cells stably expressing firefly luciferase (HEK-CMV-Luc2-Hygro)
Knock-down reagent: single siRNA against human genes, 0.8 pmol siRNA per well
Duration: 72 h
Detection: 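Reporter luminescence and viable-cell signal on separate replicate plates, given as percent of non-targeting control and median/MAD z-scores, plus per-cell luciferase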
Scale: total luciferase, z-score and total luciferase, % of control: higher = more reporter protein produced; luciferase per cell, z-score: higher = more reporter output per viable cell; viable cells, % of control: higher = more viable cells
Rule for the call: 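An siRNA counts as active if its total luciferase robust z-score exceeds 3; genes with two or more such siRNAs out of three were retested with fresh siRNAs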
Calls: active = raised luciferase; inactive = no rise

target gene,reagent,"total luciferase, z-score","total luciferase, % of control","luciferase per cell, z-score","viable cells, % of control"
FTSJ1,1,-1.23,57.5,-1.38,92.2
FTSJ1,2,-0.223,77.5,-0.339,94.6
FTSJ1,3,-0.477,72.4,-0.417,90.3
SRY,1,-0.029,81.3,-0.225,96.4
SRY,2,4.18 (active),165,2.33,99.9
SRY,3,-0.86,64.8,-1.36,104
SCNN1B,1,0.294,87.7,0.533,85.2
SCNN1B,2,-0.066,80.6,-0.537,104
SCNN1B,3,-1.7,48,-2.24,96.7
REG3A,1,0.427,90.4,0.347,92.2
REG3A,2,0.499,91.8,0.9,81
REG3A,3,0.181,85.5,0.0803,93.5
GUSBP14,1,-1.51,51.9,-0.883,73.2
GUSBP14,2,0.857,98.9,1.1,82.8
GUSBP14,3,-1.27,56.6,-1.66,98
FGF9,1,-0.0705,80.5,0.102,87.5
FGF9,2,-1.17,58.6,-2.06,113
FGF9,3,1.08,103,0.915,90.8
ZNF493,1,0.2,85.9,0.0532,94.6
ZNF493,2,-0.562,70.7,-0.0652,80.4
ZNF493,3,-1.55,51,-1.47,84
KRTAP2-1,1,0.86,99,0.166,106
KRTAP2-1,2,0.899,99.8,0.56,96.2
KRTAP2-1,3,0.601,93.8,-0.0183,105
API5,1,0.68,95.4,-0.237,113
API5,2,0.833,98.5,0.814,88.8
API5,3,0.501,91.9,-0.105,106
TEX46,1,-0.556,70.8,-0.222,83.9
TEX46,2,-1.37,54.7,-0.96,78.7
TEX46,3,-1.93,43.4,-1.49,71.7
LRP8,1,-1.04,61.1,-1.11,91.4
LRP8,2,-0.909,63.8,-1.14,96.3
LRP8,3,1.82,118,0.848,106
PARP10,1,0.775,97.3,-0.0643,111
PARP10,2,-1.51,51.8,-0.708,69.7
PARP10,3,-0.324,75.4,0.437,75.1
CCDC97,1,0.601,93.8,0.102,102
CCDC97,2,1.11,104,0.743,95.5
CCDC97,3,0.935,100,-0.0505,114
RABAC1,1,0.159,85,-0.0176,95.5
RABAC1,2,0.484,91.5,0.315,94.1
RABAC1,3,-1.05,61,-0.649,80.8
KATNAL2,1,-1.29,56.2,-1.81,101
KATNAL2,2,-0.86,64.8,-1.57,109
KATNAL2,3,2.05,123,2.72,66.9
GDF15,1,0.204,85.9,0.577,82.5
GDF15,2,-1.43,53.5,-0.894,75.7
GDF15,3,3.81 (active),158,5.21,44.6
FAM219A,1,-0.439,73.2,-0.765,100
FAM219A,2,-1.01,61.9,-0.756,84.3
FAM219A,3,-0.362,74.7,-0.483,94.8
GPR26,1,3.04 (active),142,3.67,60.6
GPR26,2,-0.122,79.5,-0.196,93.5
GPR26,3,1.45,111,1.45,84.4
LCN1,1,-0.0497,80.9,-0.331,98.6
LCN1,2,0.151,84.9,0.023,94.3
LCN1,3,0.023,82.3,0.543,79.8

Records listed so far whose gene name begins with G or g:
target gene,reagent,"total luciferase, z-score","total luciferase, % of control","luciferase per cell, z-score","viable cells, % of control"
GUSBP14,1,-1.51,51.9,-0.883,73.2
GUSBP14,2,0.857,98.9,1.1,82.8
GUSBP14,3,-1.27,56.6,-1.66,98
GDF15,1,0.204,85.9,0.577,82.5
GDF15,2,-1.43,53.5,-0.894,75.7
GDF15,3,3.81 (active),158,5.21,44.6
GPR26,1,3.04 (active),142,3.67,60.6
GPR26,2,-0.122,79.5,-0.196,93.5
GPR26,3,1.45,111,1.45,84.4
